## Library screening results

Sequences of proteins named here, by UniProt entry; tags and fusion partners are left off.
UniProt E9BF75, entry or part of it: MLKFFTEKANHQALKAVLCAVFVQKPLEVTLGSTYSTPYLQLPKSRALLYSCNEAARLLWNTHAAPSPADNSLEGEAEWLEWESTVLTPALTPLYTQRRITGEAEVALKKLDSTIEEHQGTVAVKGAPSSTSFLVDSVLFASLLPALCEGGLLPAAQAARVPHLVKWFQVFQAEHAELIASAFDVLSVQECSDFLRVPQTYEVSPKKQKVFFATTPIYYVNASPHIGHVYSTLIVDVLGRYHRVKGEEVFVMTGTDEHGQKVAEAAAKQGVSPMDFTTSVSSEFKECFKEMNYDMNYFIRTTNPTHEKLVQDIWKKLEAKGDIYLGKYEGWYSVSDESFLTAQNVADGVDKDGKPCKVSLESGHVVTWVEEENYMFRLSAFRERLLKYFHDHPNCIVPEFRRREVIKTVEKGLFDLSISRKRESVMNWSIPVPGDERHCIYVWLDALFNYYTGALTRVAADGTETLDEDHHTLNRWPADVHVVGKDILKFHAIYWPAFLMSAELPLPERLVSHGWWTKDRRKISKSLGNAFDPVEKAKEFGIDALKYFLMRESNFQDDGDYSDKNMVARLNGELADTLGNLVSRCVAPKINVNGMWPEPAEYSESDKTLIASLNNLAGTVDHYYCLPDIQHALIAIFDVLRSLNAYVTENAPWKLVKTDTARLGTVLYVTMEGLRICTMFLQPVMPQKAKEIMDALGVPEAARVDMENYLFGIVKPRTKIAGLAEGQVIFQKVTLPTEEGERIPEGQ

The values are deposited in ChEMBL (CHEMBL3988442, “University of Dundee, Small-Polar-MMV Screening Library” (2021)).

All values are in %.
The record does not define 0% and 100%; most values in the screen are far below 50% and negative numbers occur (in some assays of this library far below -100).
Compounds were drawn at random from those tested, without regard to their results.
A dash means the value is not listed here; it may have been measured.

Mtb heat-shock: 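Assay on Mycobacterium tuberculosis, filed only as a heat shock assay from Cornell; the read-out is not stated. The concentration is filed as 10 mM, unlikely as a test dose, so the dose is not known. Higher reads as stronger inhibition (inferred: compounds with an IC50 in retests scored well above the rest). Size under these conditions: about 69,000 compounds, about 930 of them at 50% or above in at least one test.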
LdMetRS: 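Primary screen of methionyl-tRNA synthetase; the read-out is not stated. Target: Methionyl-tRNA synthetase (putative), Leishmania donovani (UniProt E9BF75). The test concentration is not given. Values are per cent inhibition. About 68,000 compounds were tested under these conditions; 0.035% (about 24) showed 50% or more at least once.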
Mtb growth Cornell: 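Whole-cell assay for inhibitors of Mycobacterium tuberculosis growth, labelled Cornell in the record; the read-out is not stated. The concentration is filed as 10 mM, unlikely as a test dose, so the dose is not known. The record gives no direction; compounds strong in two other growth screens of this library score well above the rest, so higher reads as stronger inhibition. Of about 53,000 compounds tested this way, about 900 (1.7%) reached 50% or more in at least one test.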

SMILES	Mtb heat-shock	LdMetRS	Mtb growth Cornell
COC(C)c1cccc(NC(=O)N(CCC#N)Cc2ccccn2)c1 (stereo unspecified)	17.42%	7.971%	4.658%
CNC(=O)CS(=O)(=O)Cc1ccc(OC)c(F)c1	-15.7%	9.51%	-7.79%
Cc1ccc(NC(=O)N2CCC(CO)(Nc3ccccc3)CC2)cc1	-3.654%	6.842%	-0.7519%
Cc1nc2ccc(C(=O)N3CCn4c(nnc4C4CC4)C3)cc2nc1C	2.411%	3.529%	-
Cn1ncc(C(=O)OCC2CC(=O)N(c3ccccc3)C2)c1C(F)F (stereo unspecified)	4.674%	4.62%	37.71%
O=C(c1ccc(NC2CC2)nc1)N1CCCC(n2ccnc2)C1 (stereo unspecified)	6.107%	7.104%	-
CCN(CC)[C@H]1C[C@@H](Cc2cc(CO)on2)C1(C)C	-28.78%	7.519%	-21.26%
O=C(O)C(F)(F)F.O=C(O)C(F)(F)F.[H][C@@]12COC[C@@H](CC(=O)NCc3cccnc3)[C@]1([H])CN(CC1CC1)C2	9.594%	-	-5.893%
CCS(=O)(=O)CCNCc1cc(O)c2cc(C)cc(C)c2n1	2.452%	23.12%	1.215%
CCC(C)N(Cc1ccncc1)Cc1ccc(-n2cccn2)cc1 (stereo unspecified)	-8.286%	11.06%	14.29%
Cn1ccnc1CN1CCC(c2nnc(Cn3cccn3)n2C)CC1	-13.27%	1.416%	-32.04%
Cc1nc(CN2CCOC(Cn3cccn3)C2)nc2ccccc12 (stereo unspecified)	-0.8534%	26.52%	-
O=C(C1CCOC1)N1C[C@H]2CN(Cc3nccs3)C[C@H]2C1 (stereo partly specified)	-	7.744%	-
O=C(c1ccco1)N1CCc2c(COCC3CC3)cncc2C1	-	9.841%	-
Cc1nc(NCCC23CCCN2CCC3)cc(C2CCCNC2)n1 (stereo unspecified)	-8.241%	4.693%	-37.55%
COc1cc(C#N)ccc1OCCN1CCC(n2ccnc2)CC1	-12.65%	5.236%	3.845%
Fc1cnc(N2CCCC3(CN(Cc4ccncc4)CCO3)C2)nc1 (stereo unspecified)	-	17.77%	-
CN(C)CCNC(=O)[C@H]1C[C@H]2CN(c3ncccn3)C[C@H]2N1C	-	12.41%	-
Cc1cccnc1N1CCN(C(=O)C(C)n2ccnc2C(C)C)CC1 (stereo unspecified)	-38.74%	19.78%	34.37%
Cc1noc(CNc2cc3c(cc2Cl)NC(=O)CO3)n1	-1.52%	11.38%	-38.08%
Cc1nnc([C@@H]2CCO[C@@H]3CCN(C(=O)Cc4ccccn4)C[C@@H]32)o1	-	14.6%	-
OCC(CO)Nc1cccc(C(F)(F)F)n1	-3.912%	16.85%	-
COc1ccccc1NC(=O)c1cc2c([nH]c1=O)CCCC2=O	14.09%	9.474%	20.86%
COc1ccc2c(c1)OCC(Cc1ccc(N)nc1C)C2 (stereo unspecified)	-9.581%	19.42%	38.23%
Cc1nc2ccccc2n1Cc1cc(C(=O)N(C)C2CCOCC2)no1	0.9391%	-2.688%	-18.94%
CN1CCN(Cc2cn3c(n2)CN(C2CCOCC2)CC3)CC1	-	12.02%	-
Cc1ccc(N2CCO[C@H]3CN(C(=O)c4cccc(C)n4)C[C@H]32)nn1	-	5.753%	-
Cc1cc(CN2CCN(C(=O)C3CCC3)[C@@H]3CS(=O)(=O)C[C@@H]32)ccc1F	-	13.44%	-
CC(C)C(C)(O)CNc1cccc(F)c1C#N (stereo unspecified)	-1.056%	6.361%	20.37%
Cc1noc(C(C)C)c1C(=O)NCc1ccc2c(c1)OCCO2	-15.85%	20.23%	2.849%
COc1nccnc1N1CCC2(CC1)[C@H](O)C[C@@H]2OCCN(C)C	24.39%	6.529%	2.934%
CNC(=O)c1cc2c(nc1N(C)C)CCN(C)CC2	-	15.07%	-
O=C(O)C(F)(F)F.[H][C@@]12CCN(Cc3ccc(F)cc3)C[C@@]1([H])[C@H](C(=O)NCC1CC1)CCO2	-14.56%	-	20.45%
CN(C)C(=O)CN1C(=O)CCC12CCN(Cc1ccc(F)cc1)CC2	-	8.418%	-
Fc1ccc(OCCCNC2=NCCCN2)cc1	-	19.68%	-
Cc1csc(N(C)C(=O)C(c2c(F)cccc2Cl)N(C)C)n1 (stereo unspecified)	16.08%	9.487%	16.66%

For reference, 2 entries once more:

SMILES	Mtb heat-shock	LdMetRS	Mtb growth Cornell
CNC(=O)CS(=O)(=O)Cc1ccc(OC)c(F)c1	-15.7%	9.51%	-7.79%
Cc1cccnc1N1CCN(C(=O)C(C)n2ccnc2C(C)C)CC1 (stereo unspecified)	-38.74%	19.78%	34.37%